Experimental data taken from patent publication US20240376154A1 (ZYMEWORKS BC INC., priority 2023, published 2024).

Assay: general procedure: Fmoc solid-phase peptide synthesis; 2-chlorotrityl resin (Chempep, 0.81 mmol/g)
Settings: for step yield: late stage modification step

“N,N′-((7R,11S,19aS,26R,30S,38aS)-11-((S)-sec-butyl)-30-isopropyl-12,15,31,34-tetramethyl-6,13,16,19,25,29,32,35,38-nonaoxotetratriacontahydro-2H,6H,10H-dipyrido[2,1-b1: 2′,1′-l][1]oxa[4,7,10,13,17,20,23,26,29]nonaazacyclodotriacontine-7,26-diyl)bis(3-hydroxyquinoline-2-carboxamide)” gave a step yield of 42% yield.
Work on “N,N′-((7R,11S,19aS,26R,30S,38aS)-12,31-diethyl-11,30-diisopropyl-15,34-dimethyl-6,10,13,16,19,25,29,32,35,38-decaoxohexatriacontahydro-2H,6H-dipyrido[1,2-a:1′,2′-q][1,4,7,10,13,17,20,23,26,29]decaazacyclodotriacontine-7,26-diyl)bis(3-hydroxyquinoline-2-carboxamide)” yielded a step yield of 30% yield.
Work on “N,N′-((7R,11S,19aS,26R,30S,38aS)-15,34-diethyl-11,30-diisopropyl-12,31-dimethyl-6,10,13,16,19,25,29,32,35,38-decaoxohexatriacontahydro-2H,6H-dipyrido[1,2-a:1′,2′-q][1,4,7,10,13,17,20,23,26,29]decaazacyclodotriacontine-7,26-diyl)bis(3-hydroxyquinoline-2-carboxamide)” yielded a step yield of 33% yield.
For “N,N′-((7′R,19a'S,26′R,30'S,38a'S)-30′-isopropyl-12′,15′,31′,34′-tetramethyl-6′,10′,13′,16′,19′,25′,29′,32′,35′,38′-decaoxotetratriacontahydro-2′H,6′H,12′H-spiro[cyclobutane-1,11′-dipyrido[1,2-a:1′,2′-q][1,4,7,10,13,17,20,23,26,29]decaazacyclodotriacontine]-7′,26′-diyl)bis(3-hydroxyquinoline-2-carboxamide)”, the step yield was 31% yield.
In the case of “N,N′-((7′R,19a'S,26′R,30'S,38a'S)-30′-isopropyl-12′,15′,31′,34′-tetramethyl-6′,10′,13′,16′,19′,25′,29′,32′,35′,38′-decaoxotetratriacontahydro-2′H,6′H,12′H-spiro[cyclopropane-1,11′-dipyrido[1,2-a:1′,2′-q][1,4,7,10,13,17,20,23,26,29]decaazacyclodotriacontine]-7′,26′-diyl)bis(3-hydroxyquinoline-2-carboxamide)”, the step yield was 36% yield.
Substance “N,N′-((13S,16R,19aS,32S,35R,38aS)-13,32-diisopropyl-8,14,27,33-tetramethyl-6,9,12,15,19,25,28,31,34,38-decaoxohexatriacontahydro-2H,6H-dipyrido[2,1-c: 2′,1′-s][1,4,7,10,13,17,20,23,26,29]decaazacyclodotriacontine-16,35-diyl)bis(3-hydroxyquinoline-2-carboxamide)” has a step yield of 8% yield.
“N-((7R,10aS,22aS,29R,32aS,44aS)-29-amino-18,40-dimethyl-6,10,16,19,22,28,32,38,41,44-decaoxotetratetracontahydrotetrapyrido[1,2-a:1′,2′-j:1″,2″-q:1′″,2′″-z][1,4,7,10,13,17,20,23,26,29]decaazacyclodotriacontin-7-yl)-3-hydroxyquinoline-2-carboxamide (Compound 239)” showed a step yield of 91% yield.
“N-((7R,11S,19aS,26R,30S,38aS)-7-amino-11,30-diisopropyl-12,15,31,34-tetramethyl-6,13,16,19,25,29,32,35,38-nonaoxotetratriacontahydro-2H,6H,10H-dipyrido[2,1-b1: 2′,1′-l][1]oxa[4,7,10,13,17,20,23,26,29]nonaazacyclodotriacontin-26-yl)-3-hydroxyquinoline-2-carboxamide (Compound 254)” showed a step yield of 39% yield.
In the case of “[(2-{[(3R,7S,16S,23R,27S,36S)-23-[3-({4-[(2S)-5-(carbamoylamino)-2-[(2S)-2-[3-(2-{2- [2-(2,5-dioxopyrrol-1-yl)ethoxy]ethoxy}ethoxy)propanamido]-3-methylbutanamido]pentanamido]phenyl}methoxy)quinoline-2-amido]-7,27-diisopropyl-8,11,28,31-tetramethyl-2,6,9,12,15,22,26,29,32,35-decaoxo-1,5,8,11,14,21,25,28,31,34-decaazatricyclo[34.4.0.0^16,21]tetracontan-3-yl]carbamoyl}quinolin-3-yl)oxy]methoxy ([2-acetamidoethoxy(hydroxy)phosphoryl]oxy)phosphinic acid”, the conjugation yield (conjugation step) was 49% yield.
Work on “di-tert-butyl ((7R,11S,19aS,26R,30S,38aS)-11,30-diisopropyl-12,15,31,34-tetramethyl-6,10,13,16,19,25,29,32,35,38-decaoxohexatriacontahydro-2H,6H-dipyrido[1,2-a:1′,2′-q][1,4,7,10,13,17,20,23,26,29]decaazacyclodotriacontine-7,26-diyl)dicarbamate” yielded a cyclisation yield (cyclisation step) of 34% yield.
